# Reference: PubChem BioAssay AID504834 (National Center for Advancing Translational Sciences (NCATS), 2011)
# Screen size: about 320,000 compounds; about 22,000 (6.9%) were called active. This list was built around the results that the source calls inconclusive (neither active nor inactive); the mix of calls is not that of the screen. Calls come from the whole dose curve; as a rule, active = well fitted inhibition curve with a large enough effect; inconclusive = small, poorly fitted or top-dose-only effect, or another doubt; inactive = no such curve, though single readings can be large or run the other way. Potencies beside an inconclusive call are fits to weak or partial responses and may not hold up.
# Assay: Primary qHTS for delayed death inhibitors of the malarial parasite plastid, 96 hour incubation
# Settings: P. falciparum luciferase reporter growth; series mostly up to 28.7 µM
# Summary of the method: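 Compounds incubated with erythrocytes infected by luciferase-expressing P. falciparum (2% hematocrit, 0.05% parasitemia final) for 96 hours, 37 C in 5% CO2. Growth inhibition scored as decreased luciferase luminescence.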
# Potency is the fitted concentration of half-maximal effect.
row,Compound,Potency
1,Cc1cccc(N(CC(=O)NC2CCCC2)C(=O)c2cc3cc4cccc(C)c4nc3s2)c1C,"inconclusive: 18.5 µM [inhibitor, single point]"
2,O=C1CCc2cc(S(=O)(=O)NC(Cc3ccccc3)C(=O)NC3CCCCC3)ccc2N1 (stereo not drawn),"inconclusive: 9.28 µM [inhibitor, partial curve]"
3,CCN(CC)CCCNCC(=O)Nc1ccc(OC)c(Cl)c1,"inconclusive: 18.5 µM [inhibitor, single point]"
4,Nc1ncccc1C(=O)OCC(=O)NC1CCCCCC1,inactive
5,CN(C)CCn1nnnc1SCC1=C(C(=O)O)N2C(=O)[C@@H](NC(=O)Cc3csc(N)n3)[C@@H]2SC1,active: 6.42 µM
6,O=C(c1cccs1)N1CCc2c([nH]c3ccccc23)C1c1ccc(Cl)cc1 (stereo not drawn),active: 10.4 µM
7,Cc1cccc(N2CCN(C3=NC(=O)C(=C4CCCCC4)S3)CC2)c1,inactive
8,COc1cc(C(=O)OCC(=O)NC2CCS(=O)(=O)C2)ccc1OCc1c(C)noc1C (stereo not drawn),"inconclusive: 18.5 µM [inhibitor, single point]"
9,CCCCn1c(C(C)NC(=O)COC)nc2ccccc21 (stereo not drawn),"inconclusive: 18.5 µM [inhibitor, single point]"
10,Oc1cccnc1CCc1ccccc1,inactive
11,CCOc1cccc2cc(C(=O)NCc3ccc(OC)cc3)c(=N)oc12,active: 10.4 µM
12,COC(=O)Nc1c(-c2ccccc2)nc2ccc(Cl)cn12,"inconclusive: 9.28 µM [inhibitor, partial curve, poor fit]"
13,CN1CCN(CCOc2ccc(Cc3ccccc3)cc2)CC1,inactive
14,COc1cccc(C(=O)NCCN2CCN(c3ccccc3)CC2)c1,inactive
15,CC(CC(=O)NCc1ccc(Cl)cc1)c1ccccc1 (stereo not drawn),"inconclusive: 18.5 µM [inhibitor, single point]"
16,O=C(/C=C/c1ccc([N+](=O)[O-])cc1)NCCc1ccc(F)cc1,"inconclusive: 0.0041 µM [inhibitor, full curve, poor fit]"
17,COc1ccc2c(c1)[nH]c1c(N3CCN(Cc4ccc5c(c4)OCO5)CC3)ncnc12,"inconclusive: 20.8 µM [inhibitor, single point]"
18,C[n+]1cccc(O)c1SCc1ccccc1,inactive
19,Cc1ccc2c(c1)N(CC(=O)N1CCN(c3nc4ccccc4s3)CC1)C(=O)C(C)O2 (stereo not drawn),"inconclusive: 10.4 µM [inhibitor, single point]"
20,CCCS(=O)(=O)N1CCCC(C(=O)NCCc2ccc(Cl)cc2)C1 (stereo not drawn),inactive
21,Cc1cc(NC(=O)CCN2C(=O)C3C4C=CC(C4)C3C2=O)c2ccccc2n1 (stereo not drawn),"inconclusive: 8.28 µM [inhibitor, partial curve]"
22,O=C(O)CCCCCN1C(=O)CCC1=O,"inconclusive: 18.5 µM [inhibitor, single point]"
23,O=C(COc1ccc2ccccc2c1)N1c2ccccc2Sc2ccccc21,active: 13.1 µM
24,O=C(CCCc1c[nH]c2ccccc12)NCCc1c[nH]c2ccccc12,"inconclusive: 10.4 µM [inhibitor, single point]"
25,CCCNc1ncccc1C(N)=O,"inconclusive: 0.522 µM [inhibitor, full curve]"

row,Compound,Potency
1,O=C(NCc1cccs1)C(=O)NCC1OCCCN1S(=O)(=O)c1ccc(F)cc1 (stereo not drawn),"inconclusive: 18.5 µM [inhibitor, single point]"
2,COc1ccccc1NC(=O)COc1ccc(C(=O)OCC(=O)N(C(C)C)C(C)C)cc1OC,"inconclusive: 4.15 µM [inhibitor, partial curve, poor fit]"
3,CCN(CC(=O)NC(=O)NC1CCCCC1)Cc1ccccc1,"inconclusive: 18.5 µM [inhibitor, partial curve, poor fit]"
4,CC(=O)OCCOc1nc(N(C)C)nc(N(C)C)n1,"inconclusive: 1.31 µM [inhibitor, partial curve]"
5,COc1ccc(S(=O)(=O)N2CCOC2CNC(=O)C(=O)NCCc2c[nH]c3ccccc23)cc1C (stereo not drawn),active: 9.28 µM
6,Cc1ccc(NC(=O)c2ccccc2Br)cc1S(=O)(=O)N(C)C,"inconclusive: 18.5 µM [inhibitor, single point]"
7,CCc1ccc(NC(=O)CSc2nnc(Cc3cccn3C)n2-c2ccc(OC)cc2)cc1,active: 8.28 µM
8,C=CCNC(=O)c1ccc(CN(c2ccc(OCC)cc2)S(=O)(=O)c2ccc(C)cc2)cc1,inactive
9,Cc1ccc(N/C(SCc2ccccc2C)=C(/C#N)C(=O)NCc2ccco2)cc1C,"inconclusive: 18.5 µM [inhibitor, single point]"
10,O=C(OCC1OC2C(Oc3nc(=O)ccn32)C1O)c1ccccc1 (stereo not drawn),inactive
11,Cc1ccc(C(C(=O)NC2CCCCC2)N2CCC3(CC2)OCCO3)cc1 (stereo not drawn),"inconclusive: 1.65 µM [inhibitor, full curve, poor fit]"
12,CSCC[C@H](NC(=O)c1cccs1)C(=O)N1CCC2(CC1)NCCc1[nH]cnc12,inactive
13,CC(C)c1ccc(NC(=S)N2CCN(Cc3ccccc3)CC2)cc1,inactive
14,Cn1c2ccccc2c(=O)c2cc(C#Cc3cccc(N)c3)ccc21,inactive
15,CCC(C)(C)C(=O)Nc1nnc(CCc2ccccc2)s1,inactive
16,CCOc1ccccc1NC(=O)COC(=O)c1cc(C(=O)OC)cc([N+](=O)[O-])c1,inactive
17,COCCCNC(=O)c1cc(C(=O)c2ccccc2Br)c[nH]1,"inconclusive: 18.5 µM [inhibitor, single point]"
18,Cc1onc(-c2ccccc2)c1C(=O)N1CCN(c2ncccn2)CC1,"inconclusive: 18.5 µM [inhibitor, single point]"
19,CC(C)(C)c1ccc(C(=O)N2CCCN(c3ccc([N+](=O)[O-])cn3)CC2)cc1,active: 11.7 µM
20,CCOc1ccc(N2CC(C(=O)N3CCc4ccccc4C3)CC2=O)cc1 (stereo not drawn),"inconclusive: 0.928 µM [inhibitor, partial curve]"
21,Cn1c(=O)cc(N2CCCCC2)[nH]c1=O,"inconclusive: 10.4 µM [inhibitor, single point]"
22,O=C(O)C1Nc2c(O)cccc2C2C=CCC12 (stereo not drawn),active: 14.7 µM
23,OC(COCc1ccccc1)CN1CCCCC1 (stereo not drawn),inactive
24,Cn1c(-c2ccccc2)cnc1NCc1ccc(-c2ccccc2)cc1,"inconclusive: 0.0928 µM [inhibitor, full curve, poor fit]"
25,COC(=O)CNC(c1ccccc1)c1cc(Br)ccc1NC(=O)CNC(=O)OCc1ccccc1 (stereo not drawn),"inconclusive: 18.5 µM [inhibitor, single point]"

# As entered above:
# In Potency, `CCN(CC)CCCNCC(=O)Nc1ccc(OC)c(Cl)c1` is listed with inconclusive: 18.5 µM [inhibitor, single point]
# In Potency, `O=C(CCCc1c[nH]c2ccccc12)NCCc1c[nH]c2ccccc12` is listed with inconclusive: 10.4 µM [inhibitor, single point]

# Going on with the list:

row,Compound,Potency
1,CC(=O)c1sc(NCc2ccccc2)nc1C,inactive
2,Cc1cccc(N2CCN(C(c3ccccc3)c3nnnn3C(C)(C)C)CC2)c1C (stereo not drawn),"inconclusive: 13.1 µM [inhibitor, partial curve]"
3,CCn1c(C2CCN(Cc3ccccc3)CC2)n[nH]c1=S,inactive
4,CC(C)(C)c1nnc(NC(=S)Nc2ccccc2)s1,inactive
5,CCOC(=O)/C=C1\SCC(=O)N1CC(=O)NC(C)c1ccc(F)cc1 (stereo not drawn),"inconclusive: 1.65 µM [inhibitor, full curve, poor fit]"
6,Cc1ccc(CN2CCSc3ccc(C(=O)N4CCN(c5ncccn5)CC4)cc32)cc1,"inconclusive: 14.7 µM [inhibitor, single point]"
7,COc1ccc(NC(=S)NCc2ccco2)cc1,inactive
8,O=C(NC1CCCCC1)c1ccccc1NC(=O)C1CC(=O)N(c2ccccc2)C1 (stereo not drawn),"inconclusive: 18.5 µM [inhibitor, single point]"
9,CCOC(=O)c1cnc2ccc(C)cc2c1N(C)Cc1ccccc1,"inconclusive: 5.22 µM [inhibitor, partial curve, poor fit]"
10,Clc1ccc(-c2nnc(CSc3nnc(-c4cccs4)o3)o2)cc1,inactive
11,CCOc1cc(CNCCc2ccccc2F)ccc1OC,"inconclusive: 2.33 µM [inhibitor, full curve]"
12,CC(=O)c1ccc(C(=O)NC2CCCN(Cc3ccc(Cl)cc3)C2)s1 (stereo not drawn),"inconclusive: 13.1 µM [inhibitor, single point]"
13,COc1ccc(-c2cc(C(=O)NCc3ccco3)c3ccccc3n2)cc1,active: 3.29 µM
14,CCc1ccc(NC(=S)N2CCC(NC(=O)c3ccccc3OC)CC2)cc1,inactive
15,CCN1CCN(C(=O)c2ccc3c(c2)N(Cc2ccc(C)cc2)CCS3)CC1,"inconclusive: 1.65 µM [inhibitor, full curve]"
16,COc1ccc(CN2CCN(C(=O)C3CCC(CNS(=O)(=O)c4ccccc4)CC3)CC2)c(OC)c1OC (stereo not drawn),"inconclusive: 0.262 µM [inhibitor, full curve, poor fit]"
17,COC(=O)C1=C(c2cccc(OCc3ccccc3)c2)C[C@@H]2CC[C@H]1N2C(=O)NCc1ccc2[nH]ccc2c1,"inconclusive: 1.65 µM [inhibitor, full curve]"
18,Cc1noc(C)c1COc1ccc(C(=O)OCC(=O)Nc2cccc(S(=O)(=O)N3CCOCC3)c2)cc1,active: 5.22 µM
19,COc1ccc(C(=O)Nc2nc3nccc(-c4ccccc4)n3n2)cc1,"inconclusive: 18.5 µM [inhibitor, single point]"
20,C/C(=N\NC(=O)c1ccc(CN(C)S(=O)(=O)c2ccc(C)cc2)cc1)c1ccc(OC(F)F)cc1,"inconclusive: 7.38 µM [inhibitor, partial curve, poor fit]"
21,O=C(NCc1ccncc1)c1cc(C(=O)C2CCCCC2)c[nH]1,"inconclusive: 6.57 µM [inhibitor, partial curve, poor fit]"
22,CC(NC(=O)CSc1ccccc1)c1ccccc1 (stereo not drawn),"inconclusive: 18.5 µM [inhibitor, single point]"
23,CCn1c(SCc2nc3sc(C(=O)O)c(C)c3c(=O)[nH]2)nc2ccccc21,"inconclusive: 1.04 µM [inhibitor, full curve, poor fit]"

# Exported with bars between the fields: part of the list above.
row | Compound | Potency
2 | COc1ccccc1NC(=O)COc1ccc(C(=O)OCC(=O)N(C(C)C)C(C)C)cc1OC | inconclusive: 4.15 µM [inhibitor, partial curve, poor fit]
19 | CC(C)(C)c1ccc(C(=O)N2CCCN(c3ccc([N+](=O)[O-])cn3)CC2)cc1 | active: 11.7 µM
20 | CCOc1ccc(N2CC(C(=O)N3CCc4ccccc4C3)CC2=O)cc1 (stereo not drawn) | inconclusive: 0.928 µM [inhibitor, partial curve]
15 | CCN1CCN(C(=O)c2ccc3c(c2)N(Cc2ccc(C)cc2)CCS3)CC1 | inconclusive: 1.65 µM [inhibitor, full curve]
